PubChem BioAssay AID540275 (National Center for Advancing Translational Sciences (NCATS), 2011)
Among all 320,000 compounds or so, about 620 (0.19%) were called active. This list was built around the results that the source calls inconclusive (neither active nor inactive); the mix of calls is not that of the screen. Cut-off read from the data, not from the text of the source: active = activation above about 80%; inconclusive = between about 30% and that limit; inactive = weaker than that.

Amino acid sequences for entries named in this document (tags omitted).
UniProt Q8NER1, whole entry, looked up: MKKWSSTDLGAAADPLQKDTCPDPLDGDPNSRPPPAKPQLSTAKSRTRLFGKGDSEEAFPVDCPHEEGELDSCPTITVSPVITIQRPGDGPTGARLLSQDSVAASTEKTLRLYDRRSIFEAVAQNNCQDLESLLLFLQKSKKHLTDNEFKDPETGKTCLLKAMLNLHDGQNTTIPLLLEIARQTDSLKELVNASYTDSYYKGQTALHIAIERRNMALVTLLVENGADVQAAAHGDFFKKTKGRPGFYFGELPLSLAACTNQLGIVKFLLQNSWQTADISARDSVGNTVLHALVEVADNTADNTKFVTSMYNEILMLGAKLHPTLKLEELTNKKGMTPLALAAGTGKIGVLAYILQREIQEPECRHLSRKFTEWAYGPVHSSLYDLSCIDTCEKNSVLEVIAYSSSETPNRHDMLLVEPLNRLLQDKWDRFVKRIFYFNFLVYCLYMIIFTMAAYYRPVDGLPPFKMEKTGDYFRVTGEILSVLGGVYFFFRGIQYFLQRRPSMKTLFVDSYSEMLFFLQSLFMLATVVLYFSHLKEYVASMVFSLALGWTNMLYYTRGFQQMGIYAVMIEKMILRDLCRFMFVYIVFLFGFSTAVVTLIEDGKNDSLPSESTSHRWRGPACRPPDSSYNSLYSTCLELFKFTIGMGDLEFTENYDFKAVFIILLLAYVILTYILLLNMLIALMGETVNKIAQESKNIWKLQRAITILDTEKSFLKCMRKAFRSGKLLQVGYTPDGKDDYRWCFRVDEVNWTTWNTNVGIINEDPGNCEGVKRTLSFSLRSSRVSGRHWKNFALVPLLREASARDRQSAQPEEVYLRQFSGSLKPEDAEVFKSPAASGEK

These molecules were tested against Transient receptor potential cation channel subfamily V member 1 (Homo sapiens) (UniProt Q8NER1) (assay: HTS Assay for Compounds that Act as Agonists of the Vanilloid Receptor 1). Details: TRPV1-expressing cells, Fluo-8 calcium influx, agonist mode; at 8.33 µM, stronger effect = higher value.
Outline: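 Fluo-8 calcium influx in TRPV1-expressing cells, kinetic read (ex 480/em 520 nm). Compound added and read 3 min for agonist activity, followed by capsaicin at EC20 final and 2 min further read for enhancement.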
Note: 0% is about no effect.

Question: `O=C(N/N=C/c1ccncc1)c1ccc(NC(=O)c2ccc(Cl)cc2)cc1` was tested. Which activation did it give?
Answer: inconclusive: 34.3%

Question: Which activation does the source give for `CCN(CC)C(=O)Cc1c(O)c2ccccc2[nH]c1=O` here?
Answer: inactive: 2.14%

Question: `Cc1cc(C)cc(OCC(=O)NNC(=S)NC(=O)C2CC2)c1` was tested. Which activation did it give?
Answer: inactive: -2.64%

Question: `CC1(C(=O)Nc2ccccc2)Cc2ccccc2C(=O)O1` (stereo not given) was tested. Which activation did it give?
Answer: inactive: -0.4%

Question: `NS(=O)(=O)c1ccc(NC(=S)Nc2ccn(Cc3cccc4ccccc34)n2)cc1` was tested. Which activation did it give?
Answer: inactive: 0.921%

Question: `CCC(C)N(C)C(=O)c1cc2ccccc2c(-c2ccccc2Cl)n1` (stereo not given) was tested. Which activation did it give?
Answer: inconclusive: 38.1%

Question: Which activation does the source give for `COc1cccc(NC(=S)NCc2ccc3c(c2)cc(C)n3C)c1` here?
Answer: inactive: 25.5%

Question: For `CC(C)OP(=O)(c1ccc(N(C)C)cc1)C(O)c1ccc(N(C)C)cc1` (stereo not given), which activation is on record?
Answer: inactive: 4.4%

Question: With `COc1ccc(NC(=O)CN(C)C(=O)c2cc3c(s2)CCC(C)C3)cc1` (stereo not given) as the molecule, how does the activation read?
Answer: inconclusive: 60.5%

Question: Which activation does the source give for `CC1(C)Cc2c(sc3ncnc(NNC(=S)NCc4ccccc4)c23)CO1` here?
Answer: inconclusive: 37.8%

Question: With `C1=C(CCNc2ncnc3c2[nH]c2ccccc23)CCCC1` as the molecule, how does the activation read?
Answer: active: 80.3%

Question: Which activation does the source give for `CC1CC(C)CN(C(=O)COc2ccc([N+](=O)[O-])cc2Cl)C1` (stereo not given) here?
Answer: inconclusive: 39.2%

Question: For `CCCc1ccc(C(=O)COC(=O)CN2C(=O)NC3(CCCCC3C)C2=O)cc1` (stereo not given), which activation is on record?
Answer: inconclusive: 37.7%

Question: For `Cc1ccc(NC(=O)c2ccc(S(=O)(=O)N3CCCCCC3)cc2)nc1`, which activation is on record?
Answer: inconclusive: 41.6%

Question: Which activation does the source give for `CNC(=O)Nc1ccc(C2SCCS2)cc1` here?
Answer: inactive: 28.9%

Question: For `c1ccc(-c2ccccc2OCCOCCN2CCOCC2)cc1`, which activation is on record?
Answer: inactive: 6.57%

Question: `CC(C)CN(CC(C)C)CC(O)CN(c1ccccc1)S(=O)(=O)c1ccccc1[N+](=O)[O-]` (stereo not given) was tested. Which activation did it give?
Answer: inconclusive: 32.6%

Question: For `CC1CCN(C(=S)NC2CC3CCC2C3)CC1` (stereo not given), which activation is on record?
Answer: inconclusive: 60.5%

Question: Which activation does the source give for `CCN(CC)S(=O)(=O)c1ccc(N2CCOCC2)c(NS(=O)(=O)c2ccc(C)cc2)c1` here?
Answer: inactive: 24.9%

Question: How did the activation turn out when `COc1ccc([N+](=O)[O-])c(S(=O)(=O)c2ccccc2)n1` was run?
Answer: inactive: 7.47%

Question: For `O=C(CCCCCn1c(=S)[nH]c2cc3c(cc2c1=O)OCO3)N1CCN(c2ccccc2)CC1`, which activation is on record?
Answer: inactive: 1.41%

Question: Which activation does the source give for `COc1cc([N+](=O)[O-])ccc1NC(=O)Cc1ccc(C)cc1` here?
Answer: inactive: -0.249%

Question: `CN(C)CCn1cnc2c1c(=O)[nH]c(=O)n2Cc1ccccc1` was tested. Which activation did it give?
Answer: inactive: -4.99%

Question: With `CC(C)c1ccccc1OCCNC(=S)NC(=O)c1cccnc1` as the molecule, how does the activation read?
Answer: inconclusive: 65.2%

Question: How did the activation turn out when `CCN(C(=O)c1cn(C)c(=O)c2cc(OC)c(OC)cc12)c1cc(OC)ccc1OC` was run?
Answer: inactive: 2.58%
